The test system of this test is HEK293A TEAD-LUC reporter. Description: TEAD-luciferase reporter activity (YAP activation), robust Z score vs plate; higher = stronger YAP/TEAD activation. Particulars: 24 h. Background: A reporter such as luciferase makes a cellular process visible.

Structures can show the parent of a compound that is named as a salt. The list shows a part of the results. Single values are uncertain here, since repeats match poorly.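 Human kidney-derived cells stably carry a construct in which eight TEAD-binding elements drive luciferase, measured by luminescence in a drug-repurposing library screen. A hit is any compound whose signal exceeds the plate mean by more than five robust Z scores.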

On to `CCCCCCCCCCCCNC(=O)C[N+](C)(C)Cc1ccccc1`, for which the TEAD-luciferase reporter activity (compound concentration: 200 nM) is inactive: 3.76, the TEAD-luciferase reporter activity (compound concentration: 2 uM) was inactive: -1.26 and the TEAD-luciferase reporter activity (compound concentration: 10 uM) was inactive: 3.88.

For the compound `Cc1nc(-c2cccnc2)c(-c2ccccc2)[nH]1`, the TEAD-luciferase reporter activity is inactive: -0.521 (compound concentration: 200 nM), inactive: 0.233 (compound concentration: 2 uM) and inactive: -0.0682 (compound concentration: 10 uM).

With `CS(=O)(=O)OCCCCOS(C)(=O)=O` [busulfan, MicroParticle], the TEAD-luciferase reporter activity (compound concentration: 2 uM) was inactive: -0.114.

Turning to `CS(=O)(=O)OCCCCOS(C)(=O)=O` [Busulfan55-98-1], the TEAD-luciferase reporter activity is inactive: -1.27 (compound concentration: 200 nM) and inactive: -0.0964 (compound concentration: 10 uM).

Regarding `COC(=O)C1=C(C)NC(C)=C(C(=O)OC)C1c1ccccc1[N+](=O)[O-]` [nifedipine once daily, Watson], the TEAD-luciferase reporter activity is, setting by setting: (compound concentration: 200 nM) inactive: -1.01; (compound concentration: 10 uM) inactive: -1.53.

On to `COC(=O)C1=C(C)NC(C)=C(C(=O)OC)C1c1ccccc1[N+](=O)[O-]` [nifedipine once daily], for which the TEAD-luciferase reporter activity (compound concentration: 2 uM) is inactive: -1.69.

Consider `CC(=O)N[C@H](Cc1ccc(O)cc1)C(=O)N1CCC[C@@H]1C(=O)N1C[C@@H](O)C[C@@H]1C(=O)NCC(=O)N[C@H](C)C(=O)NCC(N)=O`, for which the TEAD-luciferase reporter activity runs as follows: (compound concentration: 200 nM) inactive: -0.438; (compound concentration: 2 uM) inactive: -0.323; (compound concentration: 10 uM) inactive: -0.647.

Take `CC(C)NC(=O)OCc1c(COC(=O)NC(C)C)c(-c2ccc(Cl)c(Cl)c2)n2c1CCC2`: the TEAD-luciferase reporter activity by setting is: (compound concentration: 200 nM) inactive: -1.53; (compound concentration: 2 uM) inactive: 0.426; (compound concentration: 10 uM) inactive: -1.64.

On to `CC(C)[C@H](NC(=O)[C@H](C(C)C)N(C)C)C(=O)N(C)[C@H](C(=O)N1CCC[C@H]1C(=O)N1CCC[C@H]1C(=O)NC(C)(C)C)C(C)C`, for which the TEAD-luciferase reporter activity by setting is: (compound concentration: 200 nM) inactive: -2.04; (compound concentration: 2 uM) inactive: -0.138; (compound concentration: 10 uM) inactive: -0.727.

For `O[C@H]([C@H](O)[C@@H]1CO1)[C@H]1CO1` [Dianhydrogalactitol], the TEAD-luciferase reporter activity (compound concentration: 200 nM) was inactive: 0.677, the TEAD-luciferase reporter activity (compound concentration: 2 uM) is inactive: 0.466 and the TEAD-luciferase reporter activity (compound concentration: 10 uM) is inactive: -1.58.

Regarding `O=C1NCc2ccccc2CC12CCCCN2Cc1cccc(F)c1` (centres undefined), the TEAD-luciferase reporter activity was active: 5.19 (compound concentration: 200 nM) and inactive: -0.882 (compound concentration: 10 uM).

`CC(=O)Nc1cccc(N2CCN(CCCCNS(=O)(=O)CC3CCCCC3)CC2)c1`: the TEAD-luciferase reporter activity (compound concentration: 200 nM) was inactive: -1.84, the TEAD-luciferase reporter activity (compound concentration: 2 uM) was inactive: -0.151 and the TEAD-luciferase reporter activity (compound concentration: 10 uM) is active: 10.9.

`CCCNC(=O)c1ccc2c(c1)N(C(C)CN1CCCC1)c1ccccc1S2` (centres undefined) [Apadoline]: the TEAD-luciferase reporter activity was inactive: -0.441 (compound concentration: 200 nM), inactive: -0.378 (compound concentration: 2 uM) and inactive: 1.3 (compound concentration: 10 uM).

Regarding `COc1ccc(CNc2nc(N3CCC[C@H]3CO)ncc2C(=O)NCc2ncccn2)cc1Cl` [avanafil], the TEAD-luciferase reporter activity is inactive: 1.91 (compound concentration: 200 nM), inactive: 0.0202 (compound concentration: 2 uM) and inactive: -0.97 (compound concentration: 10 uM).

In the case of `CC(O)CN(C)c1ccc(NN)nn1` (centres undefined) [pildralazine], the TEAD-luciferase reporter activity is inactive: -0.494 (compound concentration: 200 nM), inactive: 0.0246 (compound concentration: 2 uM) and inactive: -0.158 (compound concentration: 10 uM).

As for `Cc1csc(Nc2nc3ccccc3[nH]2)n1`, the TEAD-luciferase reporter activity reads like this: (compound concentration: 200 nM) inactive: -0.833; (compound concentration: 2 uM) inactive: 2.7; (compound concentration: 10 uM) inactive: 3.57.

`CO[C@H]([C@H](OC)[C@H](O)COS(C)(=O)=O)[C@H](O)COS(C)(=O)=O`: the TEAD-luciferase reporter activity is inactive: 1.69 (compound concentration: 200 nM), inactive: -0.345 (compound concentration: 2 uM) and inactive: 0.271 (compound concentration: 10 uM).

In the case of `CN1CCc2cc(Cl)c(O)cc2C(c2cccc3ccoc23)C1` (centres undefined), the TEAD-luciferase reporter activity was inactive: -1.16 (compound concentration: 200 nM), inactive: -0.209 (compound concentration: 2 uM) and inactive: 1.98 (compound concentration: 10 uM).

As for `COc1ccc(C[C@H](N)C(=O)N[C@H]2[C@@H](O)[C@H](n3cnc4c(N(C)C)ncnc43)O[C@@H]2CO)cc1`, the TEAD-luciferase reporter activity (compound concentration: 2 uM) is inactive: 3.76.

For the compound `COc1ccc(C[C@H](N)C(=O)N[C@H]2[C@@H](O)[C@H](n3cnc4c(N(C)C)ncnc43)O[C@@H]2CO)cc1` [Puromycin dihydrochloride], the TEAD-luciferase reporter activity is inactive: -1.08 (compound concentration: 200 nM) and inactive: 0.859 (compound concentration: 10 uM).

Turning to `COc1ccc(C(=O)CC(=O)c2ccc(C(C)(C)C)cc2)cc1`, the TEAD-luciferase reporter activity reads like this: (compound concentration: 200 nM) inactive: -0.348; (compound concentration: 2 uM) inactive: 0.454; (compound concentration: 10 uM) inactive: 0.721.

Regarding `CC(=O)N1Cc2ccccc2OC2(CCN(C(=O)N(C)C)CC2)C1`, the TEAD-luciferase reporter activity by setting is: (compound concentration: 200 nM) inactive: -1.94; (compound concentration: 10 uM) inactive: 4.36.

Regarding `CCCCCCCCCCOc1cc(OCCCCCCCCCC)cc(N(CC(=O)O)CC(=O)O)c1`, the TEAD-luciferase reporter activity is inactive: -0.221 (compound concentration: 200 nM), inactive: -0.544 (compound concentration: 2 uM) and inactive: -0.748 (compound concentration: 10 uM).

In the case of `CCN(CC)CCCNC(=O)Cn1ncc(-c2ccccc2)c1-c1ccccc1` [Ipazilide fumarate], the TEAD-luciferase reporter activity (compound concentration: 200 nM) was inactive: -1.21, the TEAD-luciferase reporter activity (compound concentration: 2 uM) was inactive: -1.21 and the TEAD-luciferase reporter activity (compound concentration: 10 uM) is inactive: 2.97.

As for `Cc1noc(/C(=C/c2cccc(-c3cc(C(C)(C)S(C)(=O)=O)cc4cccnc34)c2)c2ccc(S(C)(=O)=O)cc2)n1`, the TEAD-luciferase reporter activity was inactive: -1.83 (compound concentration: 200 nM), inactive: 0.371 (compound concentration: 2 uM) and inactive: 1.05 (compound concentration: 10 uM).

For `CCc1ccc(C(=O)C(C)CN2CCCC2)cc1` (centres undefined) [Inaperisone hydrochloride], the TEAD-luciferase reporter activity is inactive: -1.51 (compound concentration: 200 nM), inactive: -0.464 (compound concentration: 2 uM) and inactive: 0.698 (compound concentration: 10 uM).

Consider `C=CCn1c(=O)c2[nH]c(C3CCCCC3)nc2n(CC=C)c1=O`, for which the TEAD-luciferase reporter activity reads like this: (compound concentration: 200 nM) inactive: 1.15; (compound concentration: 2 uM) inactive: -0.224; (compound concentration: 10 uM) inactive: 0.0942.

Take `CCCNCC(O)COc1ccccc1C1CC2CCC1C2` (centres undefined): the TEAD-luciferase reporter activity is inactive: -0.41 (compound concentration: 200 nM), inactive: 1.84 (compound concentration: 2 uM) and inactive: -0.848 (compound concentration: 10 uM).

In the case of `COc1ccc(-c2c(Cl)ncn2-c2ccc(S(=O)(=O)NP(=O)(O)O)cc2)cc1F`, the TEAD-luciferase reporter activity was inactive: -0.288 (compound concentration: 200 nM), inactive: -0.988 (compound concentration: 2 uM) and inactive: -0.233 (compound concentration: 10 uM).

As for `Cc1cccc(C)c1NC(=O)c1cc(S(N)(=O)=O)c(Cl)cc1O` [xipamide], the TEAD-luciferase reporter activity reads like this: (compound concentration: 200 nM) inactive: -0.398; (compound concentration: 2 uM) inactive: 1.15; (compound concentration: 10 uM) inactive: -0.855.

For `O=S(=O)([O-])OC[C@H]1O[C@@H](n2cnc3c(O)ncnc32)[C@H](O)[C@@H]1O`, the TEAD-luciferase reporter activity is inactive: 1.52 (compound concentration: 200 nM), inactive: -1.08 (compound concentration: 2 uM) and inactive: -0.311 (compound concentration: 10 uM).

Take `Cc1[nH]c(/C=C2\C(=O)Nc3ccc(F)cc32)c(C)c1C(=O)NC[C@H](O)CN1CCOCC1`: the TEAD-luciferase reporter activity is, setting by setting: (compound concentration: 200 nM) inactive: 3.45; (compound concentration: 2 uM) inactive: 3.68; (compound concentration: 10 uM) inactive: 1.55.

Regarding `COc1cc2c(cc1OC)C(C)N(S(=O)(=O)c1ccccc1)CC2` (centres undefined), the TEAD-luciferase reporter activity (compound concentration: 200 nM) was inactive: 0.345, the TEAD-luciferase reporter activity (compound concentration: 2 uM) was inactive: -1.61 and the TEAD-luciferase reporter activity (compound concentration: 10 uM) is inactive: -0.0959.

As to `CC(C)=CCC/C(C)=C/CC/C(C)=C/CSc1ccccc1C(N)=O` [S-trans,trans-Farnesylthiosalicylamide], the TEAD-luciferase reporter activity is, setting by setting: (compound concentration: 200 nM) inactive: -0.164; (compound concentration: 2 uM) inactive: -1.23; (compound concentration: 10 uM) inactive: 3.64.

Consider `COc1ccc(C(=O)NC2(C(=O)O)Cc3ccccc3C2)cc1OCCc1cccc(C)c1`, for which the TEAD-luciferase reporter activity is inactive: -2.88 (compound concentration: 200 nM), inactive: -0.964 (compound concentration: 2 uM) and inactive: -0.789 (compound concentration: 10 uM).

The record behind these values is the supplement of paper PMC10735217.
